Data published in patent US6252041A, “Depsipeptides containing non-natural amino acids” (Nisshin Flour Milling Co., Ltd., priority 1998, dated 2001).
Not every detail of the peptide structures is certain; ends, links or a residue may be inferred.

System: productivity of apolipoprotein E in Hep G2 cells
Test: Productivity of apolipoprotein E in Hep G2 cells, enzyme immunoassay of culture supernatant
Format: cell-based, human
Conditions: Conc. 1 μM, relative value when methanol control defined as 100

## CCCCCCCCCCCC(CC(=O)N[C@@H](CCC(N)=O)C(=O)N[C@@H](CC(C)C)C(=O)O)OC(=O)[C@H](C)/C=C/[C@@H](CC(C)C)NC(=O)[C@H](CC(=O)O)NC(=O)[C@@H](NC(=O)OCC1c2ccccc2-c2ccccc21)C(C)C (some centres unmarked) [Compound 11]
  Relative amount of apolipoprotein E (%): 333%

## CCCCCCCCCCCC(CC(=O)N[C@@H](CCC(N)=O)C(=O)N[C@@H](CC(C)C)C(=O)O)OC(=O)CCCCNC(=O)[C@H](CC(=O)O)NC(=O)[C@@H](NC(=O)OCC1c2ccccc2-c2ccccc21)C(C)C (some centres unmarked) [Compound 16]
  Relative amount of apolipoprotein E (%): 165%
